# PubChem BioAssay AID686937, Drosophila RNAi Screening Center | 2013
# Screen: 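Knock-downs that reduce output of a secreted reporter enzyme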 (primary screen)
# Cell system: Drosophila S2 cells expressing secreted horseradish peroxidase
# Knock-down reagent: long dsRNA against Drosophila genes
# Timing: about 5.5 days (5 days dsRNA, then 12 h reporter induction)
# Challenge: reporter expression induced after 5 days of dsRNA, read 12 h later; inducer not stated
# Read-out: 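Chemiluminescent measurement of peroxidase in the medium 12 h after reporter induction, following 5 days of dsRNA, given as a z-score per plate; higher means more secretion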
# Reading the numbers: z-score: higher = more reporter secreted into medium
# The deposit covers about 23,000 reagents; this is a random part of those with a known target gene and a result. 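Reduced-secretion tags in replicate 1 do not always agree with the z-scores; no criterion for assigning the tags was given.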 The numbers tell different reagents against one gene apart. A plus sign joins genes that one reagent is predicted to hit. Not all columns of the deposit are shown. The record does not give: the amount of reagent.
Gene,reagent,"z-score, replicate 1","z-score, replicate 2","z-score, replicate 3","z-score, replicate 4"
CG6180,1,0.46,0.32,,
CG17141,1,0.15,0.18,,
Cpr65Au (Cuticular protein 65Au),1,-0.09,-0.21,,
Ldsdh1 (Lipid droplet subset dehydrogenase 1),1,0.26,0.6,,
Slc45-1,1,0.45,0.03,,
ND-B16.6 (NADH dehydrogenase (ubiquinone) B16.6 subunit),1,0.38,0.22,,
ND-B16.6 (NADH dehydrogenase (ubiquinone) B16.6 subunit),2,-0.03,-0.17,,
CG34325,1,0.27,0.25,,
CG34325,2,0.18,0.11,,
CG15543,1,0.48,0.42,,
CG9717,1,0.26,0.4,,
CG34234 + Dh44-R2,1,0.27,0.43,,
CG32473,1,0.37,0.45,,
CG32473,2,0.37,0.22,,
Rlip (Ral interacting protein),1,0.21,0.2,,
shu (shutdown),1,0.44,0.34,,
CG14834,1,0.2,0.31,,
CG12926,1,-3.4,0.16,0.22,-8.92
CG12926,2,0.37,0.13,,
S-Lap3 (Sperm-Leucylaminopeptidase 3),1,0.16,-0.52,,
Pstk + CG14210 + Tim9b,1,-2.77,-0.64,,
CG1440,1,0.5,0.51,,
Prosalpha3 (Proteasome alpha3 subunit),1,-1.92,-2.24,,
blanks,1,0.55,0.4,,
Gk1 (Glycerol kinase 1),1,-0.04,0.01,,
Gk1 (Glycerol kinase 1),2,-0.04,0.21,,
fkh (fork head),1,0.33,0.42,,
Def (Defensin),1,0.41,0.3,,
Lcp65Ae,1,0.27,-0.06,,
CG13850,1,-0.19,-0.07,,
FBXO11 (F-box protein 11),1,0.39,0.49,,
dah (discontinuous actin hexagon),1,0.36,0.36,,
msi (musashi),1,-0.41,-0.76,,
CG8668,1,0.17,0.13,,
Slimp (Seryl-tRNA synthetase-like insect mitochondrial protein),1,0.16,0.19,,
TM9SF4 (Transmembrane 9 superfamily protein member 4),1,0.6,0.41,,
Pak (p21-activated kinase),1,0.41,0.31,,
PIG-A (Phosphatidylinositol glycan anchor biosynthesis class A),1,0.28,0.26,,
CG33333,1,-0.01,0.25,,
Nurf-38 (Nucleosome remodeling factor - 38kD),1,0.33,0.07,,
CR41501 (pseudo),1,-0.08,0.23,,
Nup37 (Nucleoporin 37kD),1,0.2,0.34,,
CG6153,1,0.54,0.38,,
CG16721,1,0.46,0.46,,
Obp56b (Odorant-binding protein 56b),1,0.07,0.03,,
BicD (Bicaudal D),1,0.01,0.17,,
mdy (midway),1,0.28,-0.51,,
mdy (midway),2,0.24,0.25,,
Sclp,1,-2.04,-1.13,,
ACXC (Adenylyl cyclase X C),1,0.74,0.35,,
CG4151,1,0.28,0.16,,
skd (skuld),1,0.03,0.21,,
Sgf29 (SAGA-associated factor 29kDa),1,0.5,0.49,,
COX4L (Cytochrome c oxidase subunit 4-like),1,0.38,0.17,,
ND-B14.5B (NADH dehydrogenase (ubiquinone) B14.5 B subunit),1,0.39,0.2,,
CG15322,1,-1.27,0.09,,
